# Test results: the supplement of paper PMC12889115
# The list shows a part of the results. These are raw signals, not scaled to a control.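 Primary screen: polymyxin B was added at a level permeabilizing Salmonella outer membranes while sparing inner membranes. DMSO wells, both with and without polymyxin B, established maximum growth. Plate-to-plate variation meant each plate was ranked on its own, and the lowest-OD600 compounds were selected as hits.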
# Tested on: Salmonella enterica serovar Typhimurium SL1344
# Assay: bacterial growth OD600 after 18 h with compound and polymyxin B; higher = more bacterial growth (less inhibition)
# Conditions: 50 µM, Mueller-Hinton broth
smiles,measurement,setting,value
Clc1ccc(-c2n[nH]c3c2CN(CC2CC2)CC3)cc1,bacterial growth OD600,polymyxin B 0.75 µg/mL,0.802
O=C(CC(c1ccccc1)c1cccc(Cl)c1)NCCN1CCCCC1=O (stereo unspecified),bacterial growth OD600,polymyxin B 1 µg/mL,1.11
Cc1nc(N(C)C2CCCCC2)ncc1C(C)NCc1cnc(N(C)C)s1 (stereo unspecified),bacterial growth OD600,polymyxin B 0.75 µg/mL,0.681
O=C(c1ccccc1)N1CCCC(N2CCN(c3cccc(C(F)(F)F)c3)CC2)C1 (stereo unspecified),bacterial growth OD600,polymyxin B 1 µg/mL,0.842
Cc1cccc(C(=O)NCc2cccnc2N2CCCC(O)C2)n1 (stereo unspecified),bacterial growth OD600,polymyxin B 0.75 µg/mL,0.823
Cc1cc(C)n(CCC(=O)NCc2cccnc2Oc2ccc(F)cc2F)n1,bacterial growth OD600,polymyxin B 1 µg/mL,0.978
CO[C@H]1[C@H](NC(=O)Cc2cccs2)c2ccccc2C12CCN(Cc1ccccc1O)CC2,bacterial growth OD600,polymyxin B 0.75 µg/mL,0.827
CCc1noc(C)c1C(=O)N(C)C1CCCN(CCCc2ccccc2)C1 (stereo unspecified),bacterial growth OD600,polymyxin B 1 µg/mL,1.14
Cc1c[nH]c(CNC(=O)c2cc(Cn3ccc4ccccc43)[nH]n2)n1,bacterial growth OD600,polymyxin B 1 µg/mL,0.861
CCN1CCN(C(=O)c2ccc(N3CCC(NCc4nonc4C)CC3)cc2)CC1,bacterial growth OD600,polymyxin B 0.75 µg/mL,0.827
CC(C)NCC1(O)CCCN(CC2CCCCC2)C1=O (stereo unspecified),bacterial growth OD600,polymyxin B 0.75 µg/mL,0.957
CCN1CCCC1CNC(=O)CCC1CCN(C2CCN(c3ccccc3)CC2)CC1 (stereo unspecified),bacterial growth OD600,polymyxin B 1 µg/mL,0.857
O=C(c1ccc(NCCC2CCCC2)nc1)N1CCCN(c2ncccn2)CC1,bacterial growth OD600,polymyxin B 0.75 µg/mL,0.562
Cn1nccc1C(=O)N1CCCC(CCc2cccc(F)c2)C1 (stereo unspecified),bacterial growth OD600,polymyxin B 0.75 µg/mL,0.587
Cc1ccc(CC2(CCC(=O)N(C)Cc3csc(-c4cccs4)n3)CCC(=O)N2)cc1 (stereo unspecified),bacterial growth OD600,polymyxin B 0.75 µg/mL,0.889
Cc1nc(CN(C)C(=O)c2coc(COc3ccc(F)cc3Cl)n2)cs1,bacterial growth OD600,polymyxin B 1 µg/mL,0.797
CN(Cc1nccs1)Cc1cn(Cc2ccccc2)nc1-c1ccc2c(c1)OCO2,bacterial growth OD600,polymyxin B 1 µg/mL,0.013
O=C(NCc1ccon1)c1csc2nc(-c3ccc(C(F)(F)F)cc3)cn12,bacterial growth OD600,polymyxin B 1 µg/mL,0.887
COCc1ccc(C(=O)NCc2c(C)ncc3c2CCN(C(=O)Cc2c(F)ccc(F)c2F)C3)o1,bacterial growth OD600,polymyxin B 0.75 µg/mL,0.791
Cc1cc(F)ccc1NC(=O)CCC1CCCN(C(=O)CCCN2CCCC2=O)C1 (stereo unspecified),bacterial growth OD600,polymyxin B 1 µg/mL,1.09
COc1ccc(NC(=O)CCC2CCCN(Cc3ccc(F)c(OC)c3)C2)c(C)c1 (stereo unspecified),bacterial growth OD600,polymyxin B 1 µg/mL,0.579
Cc1c(C(C)NCc2ccccc2)cnn1-c1ccc(F)cc1F (stereo unspecified),bacterial growth OD600,polymyxin B 0.75 µg/mL,0.798
CCOC(=O)C1(Cc2ccc(F)cc2F)CCCN(C(=O)Cn2nc(C)cc2C)C1 (stereo unspecified),bacterial growth OD600,polymyxin B 1 µg/mL,0.812
c1ccc(CCC2CCCCN2Cc2nc(-c3cccs3)no2)cc1 (stereo unspecified),bacterial growth OD600,polymyxin B 1 µg/mL,0.012
COCCc1ncc(CN2CCCC(C(=O)Nc3cccc(-n4cccn4)c3)C2)cn1 (stereo unspecified),bacterial growth OD600,polymyxin B 1 µg/mL,0.98
CCC1CN(CC(=O)N2CCC(C(C)N3CCOCC3)CC2)Cc2cc(OC)ccc2O1 (stereo unspecified),bacterial growth OD600,polymyxin B 0.75 µg/mL,0.814
Cc1cc(C)n(CCC(=O)N2CCOc3c(cc(-c4csc5ccccc45)cc3OCCc3ccccn3)C2)n1,bacterial growth OD600,polymyxin B 0.75 µg/mL,0.353
Cc1cc(C(=O)N2CCOc3ccc(CN4CCC(OCc5ccccc5)CC4)cc3C2)nc(C)n1,bacterial growth OD600,polymyxin B 0.75 µg/mL,0.936
CCCc1cc(C(=O)N(CCOC)CC2CCN(Cc3ccccc3OC)CC2)n(C)n1,bacterial growth OD600,polymyxin B 1 µg/mL,0.815
CCOC(=O)N1CCN(C(=O)c2cc(NC(=O)C3CCCCC3)cc3ncn(CCOC)c23)CC1,bacterial growth OD600,polymyxin B 0.75 µg/mL,0.939
Cc1cc(C(=O)N2CCC3(CCCN(Cc4ccc(F)cc4)C3=O)C2)c(C)o1 (stereo unspecified),bacterial growth OD600,polymyxin B 1 µg/mL,0.784

# Molecules above with a thiophene ring, fused or not, in the order listed:
smiles,measurement,setting,value
CO[C@H]1[C@H](NC(=O)Cc2cccs2)c2ccccc2C12CCN(Cc1ccccc1O)CC2,bacterial growth OD600,polymyxin B 0.75 µg/mL,0.827
Cc1ccc(CC2(CCC(=O)N(C)Cc3csc(-c4cccs4)n3)CCC(=O)N2)cc1 (stereo unspecified),bacterial growth OD600,polymyxin B 0.75 µg/mL,0.889
c1ccc(CCC2CCCCN2Cc2nc(-c3cccs3)no2)cc1 (stereo unspecified),bacterial growth OD600,polymyxin B 1 µg/mL,0.012
Cc1cc(C)n(CCC(=O)N2CCOc3c(cc(-c4csc5ccccc45)cc3OCCc3ccccn3)C2)n1,bacterial growth OD600,polymyxin B 0.75 µg/mL,0.353
